Test results published in PubChem BioAssay AID504834 (National Center for Advancing Translational Sciences (NCATS), 2011).
Among all 320,000 compounds or so, about 22,000 (6.9%) were called active. Inconclusive results, whose numbers are uncertain, are shown with a selection of clear calls. Calls follow the shape of the dose curve; as a rule, active = well fitted inhibition curve with a large enough effect; inconclusive = small, poorly fitted or top-dose-only effect, or another doubt; inactive = no such curve, though single readings can be large or run the other way. A potency beside an inconclusive call is a rough fit, not a confirmed value.

assay: Primary qHTS for delayed death inhibitors of the malarial parasite plastid, 96 hour incubation; conditions: P. falciparum luciferase reporter growth; series mostly up to 28.7 µM
In short: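 Delayed-death screen, second-generation endpoint: infected erythrocytes, 2% hematocrit, 0.05% parasitemia final; 96 hours at 37 C, 5% CO2; luciferase detection reagent; luminescence decrease equals reduced growth.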
Potency is read from the fitted curve at half-maximal effect.

Row | SMILES | Potency
1 | COc1ccc(-n2nnnc2SCC(=O)c2cc3ccccc3o2)cc1 | inconclusive: 1.65 µM [inhibitor, partial curve, poor fit]
2 | COc1ccc(C(=O)NC2CCN(CC(=O)NC3CCCCC3)CC2)cc1 | inactive
3 | COc1ccccc1CC(=O)Nc1cccc(C(=O)NN2C(=O)c3ccccc3C2=O)c1 | active: 9.28 µM
4 | CCC1C=C(c2ccccc2)C=CN=C1N(CC)CC (stereo not given) | inconclusive: 5.22 µM [inhibitor, partial curve, poor fit]
5 | O=C(Nc1cccc(-c2cn3ccccc3n2)c1)c1cc2ccccc2oc1=O | inactive
6 | COc1cccc(OC)c1C(=O)Nc1ccccc1C(=O)N1CCCC1 | inactive
7 | CCOc1ccc(CCNC(=O)/C=C/c2ccco2)cc1OCC | inconclusive: 16.5 µM [inhibitor, single point]
8 | CCN1C(=O)/C(=C/C=C2\C=CN(CC)c3ccccc32)SC1=S | inconclusive: 10.4 µM [inhibitor, single point]
9 | OCc1ncccc1O | inactive
10 | Cn1cc(CN2CCC(n3nccc3NC(=O)CCc3ccccc3)CC2)cn1 | inconclusive: 10.4 µM [inhibitor, single point]
11 | OC(c1ccc(F)cc1)C(c1ccccc1)N1CCOCC1 (stereo not given) | active: 1.85 µM
12 | CC(=O)N1N=C(c2ccco2)CC1c1ccc(Br)cc1 (stereo not given) | active: 10.4 µM
13 | C=CCNC(=O)c1n[nH]c2c1CC(C(C)(C)CC)CC2 (stereo not given) | inconclusive: 10.4 µM [inhibitor, single point]
14 | O=C(CCN1C(=O)/C(=C\c2ccccc2Cl)SC1=S)Nc1cccnc1 | inconclusive: 11.7 µM [inhibitor, partial curve]
15 | Cc1ccc(S(=O)(=O)N2CCCC2CNC(=O)C(=O)NC2CCCC2)cc1 (stereo not given) | inconclusive: 11.7 µM [inhibitor, partial curve]
16 | Cc1ccc(C(=O)NNc2ncnc3c2cnn3C)cc1 | inactive
17 | COc1ccc(C(=O)NCCS(=O)(=O)NCc2ccco2)cc1 | inactive
18 | CC(=O)OCC(=O)Nc1ccc([N+](=O)[O-])cc1Cl | inactive
19 | CCC(C)(C)n1nnnc1C(C(C)C)N(Cc1ccco1)Cc1cc2cc3c(cc2[nH]c1=O)OCO3 (stereo not given) | inconclusive: 0.329 µM [inhibitor, full curve]
20 | CSc1nc2ccccc2cc1/C=C(\C#N)c1cccc(C)c1 | inconclusive: 18.5 µM [inhibitor, single point]
21 | Cc1cc(N2CCN(C3CCCCC3)CC2)n2nc(C)nc2n1 | inconclusive: 18.5 µM [inhibitor, single point]
22 | O=C(Nc1cccc(-c2nnc(-c3ccccc3)o2)c1)c1ccco1 | inconclusive: 14.7 µM [inhibitor, single point]
23 | CCOC(=O)Cc1csc(NC(=O)NC2(C(F)(F)F)Oc3cc(Cl)c(Cl)cc3O2)n1 | inconclusive: 18.5 µM [inhibitor, single point]

Reformatted: results already given.
Row	SMILES	Potency
14	O=C(CCN1C(=O)/C(=C\c2ccccc2Cl)SC1=S)Nc1cccnc1	inconclusive: 11.7 µM [inhibitor, partial curve]
15	Cc1ccc(S(=O)(=O)N2CCCC2CNC(=O)C(=O)NC2CCCC2)cc1 (stereo not given)	inconclusive: 11.7 µM [inhibitor, partial curve]
16	Cc1ccc(C(=O)NNc2ncnc3c2cnn3C)cc1	inactive
17	COc1ccc(C(=O)NCCS(=O)(=O)NCc2ccco2)cc1	inactive
18	CC(=O)OCC(=O)Nc1ccc([N+](=O)[O-])cc1Cl	inactive
19	CCC(C)(C)n1nnnc1C(C(C)C)N(Cc1ccco1)Cc1cc2cc3c(cc2[nH]c1=O)OCO3 (stereo not given)	inconclusive: 0.329 µM [inhibitor, full curve]
20	CSc1nc2ccccc2cc1/C=C(\C#N)c1cccc(C)c1	inconclusive: 18.5 µM [inhibitor, single point]
21	Cc1cc(N2CCN(C3CCCCC3)CC2)n2nc(C)nc2n1	inconclusive: 18.5 µM [inhibitor, single point]
22	O=C(Nc1cccc(-c2nnc(-c3ccccc3)o2)c1)c1ccco1	inconclusive: 14.7 µM [inhibitor, single point]
23	CCOC(=O)Cc1csc(NC(=O)NC2(C(F)(F)F)Oc3cc(Cl)c(Cl)cc3O2)n1	inconclusive: 18.5 µM [inhibitor, single point]

(cont.)

Row | SMILES | Potency
24 | CC1C/C(=C/c2cccn2C)C(=O)/C(=C/c2cccn2C)C1 (stereo not given) | inconclusive: 18.5 µM [inhibitor, single point]
25 | Cc1ccc(S(=O)(=O)NCCC2=CCCCC2)cc1C(N)=O | active: 10.4 µM
26 | O=C(NCCC1=CCCCC1)C1CCC(CNc2c(N3CCCC3)c(=O)c2=O)CC1 (stereo not given) | inconclusive: 13.1 µM [inhibitor, single point]
27 | CCOC(=O)c1cn(CC2CC2)c2cc(F)c(F)cc2c1=O | inconclusive: 16.5 µM [inhibitor, single point]
28 | Cc1nn2c(NCCN(C)C)c3c(nc2c1-c1ccccc1)CCCC3 | active: 2.08 µM
29 | COc1nc(-c2ccccc2)ccc1-c1noc(-c2ccco2)n1 | inactive
30 | CC(Sc1nc(N)c2c3c(sc2n1)CSC(C)(C)C3)C(=O)Nc1ccccc1 (stereo not given) | inconclusive: 11.7 µM [inhibitor, single point]
31 | CC(=O)NCCn1c(SCC(=O)Nc2ccc(C)cc2)nc2ccccc2c1=O | inconclusive: 11.7 µM [inhibitor, partial curve, poor fit]
32 | COc1ccc(C2C(C(=O)NCc3ccco3)c3ccccc3C(=O)N2C)cc1 (stereo not given) | inconclusive: 11.7 µM [inhibitor, single point]
33 | CCC(C)(O)c1[nH]c2ccc(C(F)(F)F)cc2c1C (stereo not given) | inactive
34 | Cc1ccccc1OCC(=O)NCC1CCCO1 (stereo not given) | inconclusive: 10.4 µM [inhibitor, single point]
35 | COC(=O)c1ccc(Oc2ccc(C(C)(C)C)cc2)c([N+](=O)[O-])c1 | inconclusive: 18.5 µM [inhibitor, single point]
36 | COc1cc2c(cc1OC)C(CC#N)=NC(C)(C)C2 | inconclusive: 10.4 µM [inhibitor, single point]
37 | Cc1ccccc1N=C(NOCc1ccccc1)c1nonc1N | inconclusive: 11.7 µM [inhibitor, single point]
38 | CCOC(=O)c1c(NC(=O)CSc2nnc(-c3cccnc3)o2)sc(C(C)=O)c1C | inconclusive: 1.31 µM [inhibitor, full curve, poor fit]
39 | Cc1cc(C)cc(N(CCC(=O)Nc2nnc(C)s2)S(=O)(=O)c2ccc(Cl)cc2)c1 | inconclusive: 10.4 µM [inhibitor, single point]
40 | CCN(CC)C(=O)CSc1nc2ccc(NC(=O)CSc3nnc(COc4ccccc4C)n3C)cc2s1 | active: 9.28 µM
41 | Cc1nc(N2CCOCC2)c2c(C)c(C(=O)Nc3ccccc3C(F)(F)F)sc2n1 | inconclusive: 11.7 µM [inhibitor, single point]
42 | CC(C)(C)c1cc(NC(=O)COC(=O)c2nccnc2N)n(-c2ccccc2)n1 | inconclusive: 18.5 µM [inhibitor, single point]
43 | C/C(=N/N1CCN(c2ccccn2)CC1)c1ccc([N+](=O)[O-])cc1 | inactive
44 | COc1ccc(N2C=C3C(=O)C(C)(OC(=O)CCc4ccccc4)C(=O)C=C3C=C2c2ccc(C#N)cc2)cc1 (stereo not given) | inconclusive: 18.5 µM [inhibitor, single point]
45 | O=C(NCCc1c[nH]c2ccccc12)C1CCN(S(=O)(=O)c2ccccc2F)CC1 | inconclusive: 11.7 µM [inhibitor, partial curve]
